From patent US5138035A, “Cyclopeptide derivatives usable as selective inhibitors with respect to proteases with active serine” (Centre National de la Recherche Scientifique, priority 1988, dated 1992)
Not every detail of the peptide structures is certain; ends, links or a residue may be inferred. *1 amine or outer side, *2 acyl side, *3 side chain or, on linkers, in order; H or OH if unused. Where a SMILES comes first, the peptide text is derived from it. [ ]: non-standard residue; d: D form. X2 = C[S+](C)Cc1ccc(N[*:1])cc1C(=O)[*:2]; X3 = O=C(c1cc(N[*:1])ccc1CBr)[*:2]; X4 = O=C(c1cc(N[*:1])ccc1CCl)[*:2]

Key:
Assay type in all cases: biochemical
[1] = molecular target: bovine chymotrypsin (Bos taurus, UniProt P00766); assay: Inactivation of bovine chymotrypsin; conditions: 25° C., same methods as in Example 2
[2] = molecular target: human urokinase (Homo sapiens, UniProt P00749); assay: Inactivation of human urokinase (Kitz and Wilson / Hart and O'Brien kinetic methods); conditions: 25° C., 0.025M sodium phosphate, 0.1M NaCl, 0.05% (v/v) Tween 80, pH 7.5, method a and/or b
From the text: (§1) The properties of the cyclopeptide derivative of formula (XVI) are checked and in particular its capacity to inactivate bovine trypsin or human urokinase using the methods of Kitz and Wilson (for trypsin and urokinase) and the method of Hart and O'Brien (for trypsin), 1973, published in Biochemistry, 12, pp. 2940-2945.
(§2) The properties of the cyclopeptide derivative of formula (XXIII) are checked and in particular its capacity to inactivate bovine trypsin or human urokinase using the same methods as in Example 2 and working at 25° C. with the 0.025M sodium phosphate buffer, 0.1M NaCl, 0.05% (v/v) Tween 80 and at pH 7.5 for human urokinase.
(§3) The kinetic measurements were carried out at 25° C. in the following buffers: 0.1M Tris, 0.01M CaCl2, pH 7.2 (bovine trypsin); 0.025M sodium phosphate, 0.1M NaCl, 0.05% (v/v) Tween 80, pH 7.5 (human urokinase); 0.05M Tris, 0.038M NaCl, 0.01% (v/v) Tween 80, pH 8.3 (human t-PA), 0.1M Tris (porcine pancreatic elastase), 0.1M sodium phosphate, 25% (v/v) glycerol (human plasmin). […]

[3] = molecular target: human t-PA (Homo sapiens, UniProt P00750); assay: Inactivation of human t-PA; conditions: 25° C., 0.05M Tris, 0.038M NaCl, 0.01% (v/v) Tween 80, pH 8.3, method b
Protocol: The inactivating or inhibiting properties of this derivative with respect to human t-PA are checked at 25° C. in a 0.05M Tris buffer, 0.038M NaCl, 0.01% (v/v) Tween 80 and pH 8.3.

[4] = molecular target: porcine pancreatic elastase (Sus scrofa, UniProt P00772); assay: Inactivation of porcine pancreatic elastase; conditions: 25° C., 0.1M Tris, method b
[5] = molecular target: T1, bovine trypsin (Bos taurus, UniProt P00760); assay: Inactivation of bovine trypsin (Hart and O'Brien / Kitz and Wilson kinetic methods); conditions: 25° C., 0.1M Tris, 0.01M CaCl2, pH 7.2 (Example 14), method a (Hart and O'Brien) or b (Kitz and Wilson)
T1 sequence (P00760 24-246): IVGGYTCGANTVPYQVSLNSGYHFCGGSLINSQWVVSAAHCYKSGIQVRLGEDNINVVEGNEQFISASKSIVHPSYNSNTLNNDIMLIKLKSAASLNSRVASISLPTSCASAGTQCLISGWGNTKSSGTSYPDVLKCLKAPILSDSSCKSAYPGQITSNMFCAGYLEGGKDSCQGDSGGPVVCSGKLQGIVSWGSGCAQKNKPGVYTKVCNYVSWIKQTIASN
From the text: as §1, §2, §3

| SMILES | apparent inactivation constant ki/Ki [1] [M⁻¹ s⁻¹] | apparent inactivation constant ki/Ki [2] [M⁻¹ s⁻¹] | apparent inactivation constant ki/Ki [3] [M⁻¹ s⁻¹] | apparent inactivation constant ki/Ki [4] [M⁻¹ s⁻¹] | apparent inactivation constant ki/Ki [5] [M⁻¹ s⁻¹] |
| --- | --- | --- | --- | --- | --- |
| O=C1CNC(=O)CNC(=O)c2cc(ccc2CBr)NC(=O)[C@H](Cc2ccccc2)NC(=O)CNC(=O)CN1 [Compound (XXIV)] (cyclo(F[X3]GGGG)) | 7 |  |  |  |  |
| C[S+](C)Cc1ccc2cc1C(=O)NCC(=O)NCC(=O)NCC(=O)NCC(=O)N[C@@H](CCCNC(=N)N)C(=O)N2 [Derivative (XXX)] (cyclo(GGGGR[X2])) |  | 108 | 0 | 0 | 7 |
| O=C1CNC(=O)CNC(=O)c2cc(ccc2CCl)NC(=O)[C@H](Cc2ccccc2)NC(=O)CNC(=O)CN1 [Compound (XXV)] (cyclo(F[X4]GGGG)) | 2.8 |  |  |  |  |
| N=C(N)NCCC[C@@H]1NC(=O)CNC(=O)[C@@H]2CCCN2C(=O)CNC(=O)CNC(=O)c2cc(ccc2CBr)NC1=O [Derivative (XXXI)] (cyclo(GGPGR[X3])) |  |  |  |  | 2016 |
